The target of assay [1] is T1, AtPIP5K2 bait protein (fusion to an N-terminal OST4 membrane anchor, in pBT3-C-OST4) (Arabidopsis thaliana) (UniProt Q8L796).
T1 sequence: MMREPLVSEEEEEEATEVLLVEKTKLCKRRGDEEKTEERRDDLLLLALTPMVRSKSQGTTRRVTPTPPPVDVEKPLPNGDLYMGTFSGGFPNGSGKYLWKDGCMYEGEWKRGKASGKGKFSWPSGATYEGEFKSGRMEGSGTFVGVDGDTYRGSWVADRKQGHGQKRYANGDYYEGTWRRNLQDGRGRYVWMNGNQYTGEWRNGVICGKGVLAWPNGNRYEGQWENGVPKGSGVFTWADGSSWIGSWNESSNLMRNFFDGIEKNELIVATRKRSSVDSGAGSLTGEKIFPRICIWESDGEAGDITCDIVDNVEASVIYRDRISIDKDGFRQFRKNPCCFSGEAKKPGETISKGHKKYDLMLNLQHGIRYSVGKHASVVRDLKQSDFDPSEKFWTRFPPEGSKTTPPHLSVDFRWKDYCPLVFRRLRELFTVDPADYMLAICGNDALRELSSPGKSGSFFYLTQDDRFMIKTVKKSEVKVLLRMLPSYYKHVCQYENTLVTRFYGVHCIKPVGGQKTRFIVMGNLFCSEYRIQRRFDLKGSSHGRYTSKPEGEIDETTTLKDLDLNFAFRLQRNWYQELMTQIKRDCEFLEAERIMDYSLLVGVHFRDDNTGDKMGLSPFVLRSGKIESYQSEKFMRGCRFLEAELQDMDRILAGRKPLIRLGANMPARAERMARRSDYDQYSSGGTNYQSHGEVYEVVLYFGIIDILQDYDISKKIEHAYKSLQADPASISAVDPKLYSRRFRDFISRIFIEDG
As to the kind of experiment: two-hybrid.

In the next assay the target is GST protein alone. As to the kind of experiment: pull-down.
The next assay deals with GST-NtRac5 (tobacco) (UniProt Q9S820). As to the kind of experiment: pull-down.

Results are given in words; binding and its absence hold for the method and conditions named. For part of these data: A result given as binding can be weak or reduced; the word gives no strength. Tags and fused reporters may be left off the sequences shown.

On to “NtRac5 prey protein (in pPR3-N) (tobacco)”, for which, in assay [1], the binding entry is on record as “binds”.

B1: MBP-AtPIP5K2 (enzyme, UniProt Q8L796 1-754)
chain: MMREPLVSEEEEEEATEVLLVEKTKLCKRRGDEEKTEERRDDLLLLALTPMVRSKSQGTTRRVTPTPPPVDVEKPLPNGDLYMGTFSGGFPNGSGKYLWKDGCMYEGEWKRGKASGKGKFSWPSGATYEGEFKSGRMEGSGTFVGVDGDTYRGSWVADRKQGHGQKRYANGDYYEGTWRRNLQDGRGRYVWMNGNQYTGEWRNGVICGKGVLAWPNGNRYEGQWENGVPKGSGVFTWADGSSWIGSWNESSNLMRNFFDGIEKNELIVATRKRSSVDSGAGSLTGEKIFPRICIWESDGEAGDITCDIVDNVEASVIYRDRISIDKDGFRQFRKNPCCFSGEAKKPGETISKGHKKYDLMLNLQHGIRYSVGKHASVVRDLKQSDFDPSEKFWTRFPPEGSKTTPPHLSVDFRWKDYCPLVFRRLRELFTVDPADYMLAICGNDALRELSSPGKSGSFFYLTQDDRFMIKTVKKSEVKVLLRMLPSYYKHVCQYENTLVTRFYGVHCIKPVGGQKTRFIVMGNLFCSEYRIQRRFDLKGSSHGRYTSKPEGEIDETTTLKDLDLNFAFRLQRNWYQELMTQIKRDCEFLEAERIMDYSLLVGVHFRDDNTGDKMGLSPFVLRSGKIESYQSEKFMRGCRFLEAELQDMDRILAGRKPLIRLGANMPARAERMARRSDYDQYSSGGTNYQSHGEVYEVVLYFGIIDILQDYDISKKIEHAYKSLQADPASISAVDPKLYSRRFRDFISRIFIEDG
Take B1: the results for the binding entry with GST protein alone and with GST-NtRac5 (tobacco) were “no binding” and “binds”, respectively.
